Results taken from paper PMC7819943, “Rice protein-binding microarrays: a tool to detect cis-acting elements near promoter regions in rice”.
The list shows a part of the results.

Biological target: T1, OsSMF1 (Oryza sativa, UniProt Q6ZLB0 1-436)
T1 sequence: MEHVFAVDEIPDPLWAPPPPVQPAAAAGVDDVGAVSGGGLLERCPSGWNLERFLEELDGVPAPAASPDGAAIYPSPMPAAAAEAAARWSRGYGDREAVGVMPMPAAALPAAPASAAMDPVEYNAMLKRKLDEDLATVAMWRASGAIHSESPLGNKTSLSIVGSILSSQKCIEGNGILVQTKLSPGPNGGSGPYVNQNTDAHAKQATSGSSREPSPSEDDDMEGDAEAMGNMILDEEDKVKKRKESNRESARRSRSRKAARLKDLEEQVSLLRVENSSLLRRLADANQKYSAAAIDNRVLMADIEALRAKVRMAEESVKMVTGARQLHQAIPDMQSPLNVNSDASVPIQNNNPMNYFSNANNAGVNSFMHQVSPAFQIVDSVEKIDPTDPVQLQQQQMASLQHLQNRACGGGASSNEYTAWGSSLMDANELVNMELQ
Assay: protein-binding microarray (RPBM); PBS, 2% BSA, 51.3 ng/ul salmon testes DNA, 50 uM zinc acetate, 200 nM TF, 25 C, 1 h; high values mean tight binding
Details: protein: recombinant; tags: N-terminal polyhistidine and DsRed monomer fusion (pET32a); chain copies: 2; label: CyDye5-dUTP incorporated in the synthesized complementary strand; 3' TTTTT single-stranded linker to array surface; dsDNA, one strand shown
Outline: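 Polyhistidine-tagged DsRed fusions of transcription factors, joined at the N-terminus, were expressed in E. coli BL21-CodonPlus and isolated on Ni–NTA. They were incubated at 200 nM for 1 h at 25 °C on a custom Agilent array, double-stranded and BSA-blocked, in PBS with 2% BSA, salmon testes DNA and 50 µM zinc acetate. The binding signal is per-feature fluorescence intensity (arbitrary units) read on an Axon 4000B scanner after washing.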

Row | Sequence | binding signal
1 | AAATAGTTGCCGGCTCACACCCTCTGTCCTCTTCAGCTCACGGAGTCACCTAGTGCAG | 4440 fluorescence intensity (a.u.)
2 | GGGGCCCAACCCAGAAATAAGCGAGGCGGACCTGGGCTATCGGAGTCACCTAGTGCAG | 25100 fluorescence intensity (a.u.)
3 | GCAGAATTCCCCAGCGTGCCCGTCATCTGCATACGCCTCCCGGAGTCACCTAGTGCAG | 3500 fluorescence intensity (a.u.)
4 | TGACATGTGGGCCATCCTTATGTGTGCCCCGCACGTCAGTCGGAGTCACCTAGTGCAG | 4180 fluorescence intensity (a.u.)
5 | TTGACCCACCCCAGTAGCGTGTCGTGTCGTGTCCGCGTGGCGGAGTCACCTAGTGCAG | 4340 fluorescence intensity (a.u.)
6 | AACATGAAAGCTCAAGAGCTCGTGCTGACGGCTGAGAATCCGGAGTCACCTAGTGCAG | 3150 fluorescence intensity (a.u.)
7 | TATATAGGGTTAATTTACAAAGTAAGTTCTCTAAAACTATCGGAGTCACCTAGTGCAG | 34500 fluorescence intensity (a.u.)
8 | CGCTCTACTCTTCCGCCGCCGCCGCCGTCAGCGTCAGCGACGGAGTCACCTAGTGCAG | 5890 fluorescence intensity (a.u.)
9 | CCATTATTGGACGCATTCCGTCAGCATCAACTGCCTCATCCGGAGTCACCTAGTGCAG | 4980 fluorescence intensity (a.u.)
10 | GGAAATCATCCATGTTTAGCATTTTATCGTGTTGAGTCAGCGGAGTCACCTAGTGCAG | 5940 fluorescence intensity (a.u.)
11 | ATCATACCAGCAAAGTTGGCAGCAAAATGCCCCACCACCTCGGAGTCACCTAGTGCAG | 3230 fluorescence intensity (a.u.)
12 | CCTTCCTCCCTCCGCCAGCGCCACCTCCGCGCTACTGCCTCGGAGTCACCTAGTGCAG | 6970 fluorescence intensity (a.u.)
13 | GCTCGCCCGTGACGCGTGCCGCGTGCGTGACTGCCAGCAGCGGAGTCACCTAGTGCAG | 6040 fluorescence intensity (a.u.)
14 | TTCTAAATATGACACATCCTCCGATTACAAGTCACAAATACGGAGTCACCTAGTGCAG | 3450 fluorescence intensity (a.u.)
15 | AAATCAACACGTGAATTCTGATCCGATATGGACACGCAAGCGGAGTCACCTAGTGCAG | 3700 fluorescence intensity (a.u.)
16 | GCCGCCTGCCTCCTCGGCCGCGCGCTCACCTGCCGCTACCCGGAGTCACCTAGTGCAG | 5920 fluorescence intensity (a.u.)
17 | GAAAGGACCGGTTCAACGATCCACGTCAGCGGCGCAAGCCCGGAGTCACCTAGTGCAG | 26100 fluorescence intensity (a.u.)
18 | AGTACTGCATGTGTCACATGTCTGTATCCGGTATGGTCTGCGGAGTCACCTAGTGCAG | 4170 fluorescence intensity (a.u.)
19 | TCTCACTCTCACTCTCACTCTCACTCAGCTCGAGCCACAGCGGAGTCACCTAGTGCAG | 18700 fluorescence intensity (a.u.)
20 | ACTCGCCCCAATCCAATCCACTCCACCGTACCACTCGCCGCGGAGTCACCTAGTGCAG | 5110 fluorescence intensity (a.u.)
21 | GATAGCGCTTTCGTCTCTCCTGACTGTATCTGGAGACACCCGGAGTCACCTAGTGCAG | 4920 fluorescence intensity (a.u.)

Row | Sequence | binding signal
22 | GGCAGCGTGGCTATGGTCCCACCCGTCAGCCACCTCTCTCCGGAGTCACCTAGTGCAG | 4140 fluorescence intensity (a.u.)
23 | GGGCGGCCGACGCCTGCTGCACGGCGGCGACCTCCTCGACCGGAGTCACCTAGTGCAG | 5760 fluorescence intensity (a.u.)
24 | CTCCTTGCTTCCTTTTCTGACGAAACAAAACCAAGTATACCGGAGTCACCTAGTGCAG | 4320 fluorescence intensity (a.u.)
25 | ATCTGGCCGTCCACGTTCCTCACTGTGCTGGCCCTTCCGCCGGAGTCACCTAGTGCAG | 3470 fluorescence intensity (a.u.)
26 | TTTGTAGGAGCTTCATCCCACGTGGCACTCCAGGCTGAGCCGGAGTCACCTAGTGCAG | 24200 fluorescence intensity (a.u.)
27 | ATAGTACTAGAATACGTCTCATCCACTCAAAATTCCTTATCGGAGTCACCTAGTGCAG | 28000 fluorescence intensity (a.u.)
28 | TTAGCGTCAAATCATTGATCAATTAGGCTTAAAAGATTCGCGGAGTCACCTAGTGCAG | 31800 fluorescence intensity (a.u.)
29 | TATGTAATATATCACGTCACATATATGTAAGTTCATATTCCGGAGTCACCTAGTGCAG | 4910 fluorescence intensity (a.u.)
30 | ACCGTGCAACGCCTCGCTAGCTGGCGTGGGCCCCACCTAACGGAGTCACCTAGTGCAG | 3820 fluorescence intensity (a.u.)
31 | AGTTACCGTTCTAGTCAGGGGCGGATCCAGCGTGGGGCGGCGGAGTCACCTAGTGCAG | 3290 fluorescence intensity (a.u.)
32 | TGATCAAAGGGTTTTACTAAAGGAGTTATGGTCTAATTTTCGGAGTCACCTAGTGCAG | 64900 fluorescence intensity (a.u.)
33 | AGCCACATTGTTGGTCGCCCATCCTGCATCACCTGGATCCCGGAGTCACCTAGTGCAG | 3220 fluorescence intensity (a.u.)
34 | AGCCGGAGGCCAAGGGGCGTGGACGGTGGAGGGTAATCCGCGGAGTCACCTAGTGCAG | 3370 fluorescence intensity (a.u.)
35 | TTTGCTGAGATATAGTTGCCACGTGAGCGCCACGTCAAGCCGGAGTCACCTAGTGCAG | 30800 fluorescence intensity (a.u.)
36 | TTCTTGCCGATATTTTGGTGCGTCATCCGTGTATGAGTCGCGGAGTCACCTAGTGCAG | 7280 fluorescence intensity (a.u.)
37 | GCCTCACCTTTCACTTCATCCATCTCTACACATCAGCAATCGGAGTCACCTAGTGCAG | 8490 fluorescence intensity (a.u.)
38 | GGAGGCTTCACTGGTGGCGGGGCCGGAGTCGAGGGGTTCTCGGAGTCACCTAGTGCAG | 3150 fluorescence intensity (a.u.)
39 | TCATGGCTCTAGTTACTAGTAGTAGATTGCAAATCGATTTCGGAGTCACCTAGTGCAG | 3170 fluorescence intensity (a.u.)
40 | CCTGGCGGTCTCGGCGGCCACCTGGAGCCGGAAGTGGACGCGGAGTCACCTAGTGCAG | 36300 fluorescence intensity (a.u.)
41 | AAAATGCCACGCCAGCTGACACGTCACCCACAGGCAAGTACGGAGTCACCTAGTGCAG | 15300 fluorescence intensity (a.u.)
42 | CAGGTGGCAGCGTGACGCCAGCTGGCACCGGGGTGTGGGGCGGAGTCACCTAGTGCAG | 6890 fluorescence intensity (a.u.)

Retrieved one by one from the list above:
Row | Sequence | binding signal
27 | ATAGTACTAGAATACGTCTCATCCACTCAAAATTCCTTATCGGAGTCACCTAGTGCAG | 28000 fluorescence intensity (a.u.)
42 | CAGGTGGCAGCGTGACGCCAGCTGGCACCGGGGTGTGGGGCGGAGTCACCTAGTGCAG | 6890 fluorescence intensity (a.u.)
